Earlier results in patent US11786481B2, “Formulation and process for modulating wound healing” (BioMendics, LLC, priority 2015, dated 2023).
At least one structure is not confirmed: it was looked up by name or label, or the drawing left a doubt.

Tested on: deep second-degree burn
Details: rats; cited from earlier work

CO[C@H]1C[C@@H]2CC[C@@H](C)[C@@](O)(O2)C(=O)C(=O)N2CCCC[C@H]2C(=O)O[C@H]([C@H](C)C[C@@H]2CC[C@@H](O)[C@H](OC)C2)CC(=O)[C@H](C)/C=C(\C)[C@@H](O)[C@@H](OC)C(=O)[C@H](C)C[C@H](C)/C=C/C=C/C=C/1C [rapamycin]
Autophagic vesicle formation: enhance
IL-8 levels: decreased
Methane dicarboxylic aldehyde (MDA) levels: decreased
Myeloperoxidase levels: decreased
Wound reepithelization times: improve
